Test [1] has as its target T1, Flag-tagged porcine retinoic acid-inducible gene I (pRIG-I) (porcine) (UniProt Q9GLV6).
T1 sequence: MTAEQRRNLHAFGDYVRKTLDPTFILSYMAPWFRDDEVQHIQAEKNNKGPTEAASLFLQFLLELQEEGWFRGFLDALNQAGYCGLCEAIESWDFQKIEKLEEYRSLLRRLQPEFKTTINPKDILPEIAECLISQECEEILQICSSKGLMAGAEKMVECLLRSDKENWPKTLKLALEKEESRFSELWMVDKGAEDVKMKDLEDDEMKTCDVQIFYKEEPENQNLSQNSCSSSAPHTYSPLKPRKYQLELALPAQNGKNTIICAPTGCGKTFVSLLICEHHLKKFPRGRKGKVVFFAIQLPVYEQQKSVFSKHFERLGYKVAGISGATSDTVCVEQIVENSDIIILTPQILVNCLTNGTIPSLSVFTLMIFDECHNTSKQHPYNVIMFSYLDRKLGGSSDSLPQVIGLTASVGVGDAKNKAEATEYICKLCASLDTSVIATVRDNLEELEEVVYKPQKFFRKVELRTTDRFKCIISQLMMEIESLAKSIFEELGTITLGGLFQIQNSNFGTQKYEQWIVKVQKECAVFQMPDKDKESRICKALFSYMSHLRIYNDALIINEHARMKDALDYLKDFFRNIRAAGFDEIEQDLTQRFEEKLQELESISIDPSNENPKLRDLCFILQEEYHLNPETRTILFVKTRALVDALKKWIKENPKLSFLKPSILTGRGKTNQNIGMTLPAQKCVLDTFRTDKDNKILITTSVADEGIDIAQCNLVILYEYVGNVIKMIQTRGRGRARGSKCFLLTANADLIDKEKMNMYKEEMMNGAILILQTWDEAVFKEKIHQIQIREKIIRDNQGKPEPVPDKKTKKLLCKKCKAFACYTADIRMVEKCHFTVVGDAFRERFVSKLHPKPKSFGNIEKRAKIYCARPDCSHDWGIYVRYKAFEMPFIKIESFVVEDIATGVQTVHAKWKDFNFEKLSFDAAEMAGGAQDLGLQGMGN
Kind of test: co-IP; HEK293T cells cotransfected for 28 h; lysis buffer 50 mM Tris-HCl pH 7.4, 150 mM NaCl, 1% NP-40, 10% glycerin, 0.1% SDS, 2 mM Na2EDTA; precipitated at 4°C with anti-Flag affinity gel; western blot. In general terms: A western blot detects proteins with antibodies after separation by electrophoresis.

Test [2] addresses T2, HA-tagged porcine Riplet (pRiplet) (porcine) (UniProt F1RKW3).
T2 sequence: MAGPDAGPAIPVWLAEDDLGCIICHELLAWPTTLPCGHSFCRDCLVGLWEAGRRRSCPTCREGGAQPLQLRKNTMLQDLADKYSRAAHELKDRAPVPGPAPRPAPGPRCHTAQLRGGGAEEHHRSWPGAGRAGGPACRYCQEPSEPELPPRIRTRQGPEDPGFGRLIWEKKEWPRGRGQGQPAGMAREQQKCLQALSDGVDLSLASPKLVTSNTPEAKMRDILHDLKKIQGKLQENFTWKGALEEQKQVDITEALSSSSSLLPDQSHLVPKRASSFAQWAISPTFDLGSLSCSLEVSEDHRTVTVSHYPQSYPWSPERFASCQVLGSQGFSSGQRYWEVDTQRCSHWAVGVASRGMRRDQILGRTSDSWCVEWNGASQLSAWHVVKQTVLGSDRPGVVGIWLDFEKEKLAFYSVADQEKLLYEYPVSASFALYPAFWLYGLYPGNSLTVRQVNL
Kind of test: co-IP; HEK293T cells cotransfected for 28 h; same lysis buffer; precipitated at 4°C with anti-HA affinity gel; western blot.

Results are given in words; binding and its absence hold for the method and conditions named. Binding seen in cells or lysates may run through a third protein. Some entries that bind do so weakly or less than the wild type. Where a sequence is shown, tags or fusion partners need not be part of it.

B1: HA-tagged porcine Riplet (pRiplet) (protein, UniProt F1RKW3 1-454)
chain: T2 sequence
In the case of B1, the binding entry in test [1] was “binds”.

B2: Flag-tagged porcine retinoic acid-inducible gene I (pRIG-I) (protein, UniProt Q9GLV6 1-940)
chain: T1 sequence
B2: in test [2], the binding entry is “binds”.

The values are drawn from publication PMC6521028.
